Laboratory results: patent US20060058310A1, “Remedies for vertebral canal stenosis” (priority 2002, published 2006)
Entries after “also recorded” stand apart in the source; their conditions may differ. At least one compound was matched to its structure with a doubt left.

Tested on: rat of gait disturbance model by cauda equina compression
Assay: Walking ability (treadmill) in rat gait disturbance model by cauda equina compression
Type: in vivo
Conditions: spinal canal stenosis model, administered orally for 11 days after the operation, vs negative control (carboxymethylcellulose or toragacanth gum), Dunnett's test, FIG. 1 and FIG. 2
Source text: Improvement effect of this invented compound in a rat model of gait disturbance model by cauda equina compression:
<Method of Making an Animal Model>
A rat of gait disturbance model by cauda equina compression was made by the method of Takenobu et al. (J. Neurosci. Methods, 104(2), 191-198 (2002)). Namely, a rat was anesthetized by sodium pentobarbital, removed its dorsal hair and then was fixed its body in the prone position. After disinfection of the back with Chlorhexidine gluconate (5% Hibiten Liquid: Sumitomo Pharmaceuticals), the lumbar was incised along the midline to expose the spine. After excision of the fifth lumbar spinous process, silicon rubber 1×4×1.25 mm (height×length×width) were inserted into the fourth and the sixth lumbar spinal canals from small holes of vertebral arch which was made by mini-drill. […]
The rats were put on the running belt, and adapted to the condition where the grid was sent an electric current (0.04 mA-4 mA) for three minutes or more. […] The distance between the point to walk and the point to give up walk, in other words, the point where it is impossible for them to walk even though the stimulation (sound, contact and electricity) to make them walk was given, was measured with the mileometer built into the equipment. […] The results obtained from the compounds- and negative control-groups were analyzed by the Dunnett's multiple comparison test (*P<0.05). […]

## NC(=O)[C@@H]1C[C@]2(NC(=O)NC2=O)c2cc(F)ccc2O1 [Compound C, (2S,4S)-6-fluoro-2′,5′-dioxospiro[3,4-dihydro-2H-1-benzopyran-4,4′-imidazoline]-2-carboxamide]
  improvement of walking dysfunction (walking distance on treadmill): improved the pathology; also recorded: improved the walking dysfunction
